In general, inhibition refers to the drop in the measured response relative to a control, in per cent.

The list shows a part of the results.

This experiment is described as follows: blockers of AIP-driven agr signalling in S. aureus – RNAIII-GFP reporter, flow cytometry, primary screen (AID 527).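 Further: 0% = AIP-stimulated control and 100% = unstimulated bacteria without AIP.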 The note with it: S. aureus RN6390 RNAIII-GFP reporter, AIP-induced, flow cytometry 3 h; measured here: inhibition of GFP MFI; at 2 µM; stronger effect = higher value. (In flow cytometry, cells or beads pass a laser one at a time.)
`Fc1ccccc1NC1CCN(Cc2ccccc2)CC1` gave an inhibition of 0.1%.

Molecule `N#CC1(Nc2ccccc2)CCN(CCc2ccccc2)CC1` gave an inhibition of 15.3%.

For the origin of these results see PubChem BioAssay AID527 (NMMLSC, 2006).
